# Results of single-concentration screens

Amino acid sequences for entries named in this document (tags omitted).
UniProt P9WNZ1, whole entry: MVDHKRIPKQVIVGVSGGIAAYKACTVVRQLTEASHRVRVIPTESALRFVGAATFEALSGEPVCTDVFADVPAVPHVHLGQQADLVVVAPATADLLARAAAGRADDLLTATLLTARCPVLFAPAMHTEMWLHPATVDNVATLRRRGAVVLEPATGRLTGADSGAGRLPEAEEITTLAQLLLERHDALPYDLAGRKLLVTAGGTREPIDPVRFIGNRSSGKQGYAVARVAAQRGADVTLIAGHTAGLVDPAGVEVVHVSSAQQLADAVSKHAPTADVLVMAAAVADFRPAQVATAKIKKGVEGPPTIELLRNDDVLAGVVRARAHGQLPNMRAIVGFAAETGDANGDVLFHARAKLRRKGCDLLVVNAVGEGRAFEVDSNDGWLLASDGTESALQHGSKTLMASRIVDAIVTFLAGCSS

Leishmania in macrophages: 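Cell assay of Leishmania donovani living inside macrophages; the read-out is not stated. Concentration: 30 µM. Higher reads as stronger inhibition (inferred: compounds with an IC50 in retests scored well above the rest). Of about 69,000 compounds tested this way, about 1,000 (1.5%) reached 50% or more in at least one test.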
CoaBC: 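Enzyme assay of CoaBC with a phosphate dye (Biomol Green) read at 650 nm. Target: Coenzyme A biosynthesis protein CoaBC, Mycobacterium tuberculosis (UniProt P9WNZ1). Concentration: 30 µM. Higher reads as stronger inhibition, judged from the few compounds that gave an IC50. Most strong results did not repeat in a second test. About 67,000 compounds were tested under these conditions; 0.06% (about 40) showed 50% or more at least once.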

The filed quantity is “Percent Effect” (%). The controls that fix the scale are not given in the record; negative values are as filed. The compounds are a random part of those screened. Two or more numbers in one place are separate tests of the same structure; such repeats can differ widely. A dash means the value is not listed here; it may have been measured.

| SMILES | Leishmania in macrophages | CoaBC |
|---|---|---|
| `COc1cccc(S(=O)(=O)N2C[C@@H](O)[C@H](N(C)C)C2)c1` | -27.74% | 13.05% |
| `Cc1ccc(N2CC[C@H](OCC3CC3)[C@@H]2Cc2ccncc2)nn1` | 14.63% | 4.97% |
| `Cc1cc(Br)ccc1NCC(=O)Nc1cc(C(C)(C)C)no1` | 8.554% | -0.3654% |
| `CCC1(CC)Cc2ccccc2-c2nc(NCCO)[nH]c(=O)c21` | -17.55% | 1.754% |
| `CC[C@H](C)Nc1nccc(-c2cnc3sc(C)c(C)n3c2=O)n1` | -28.38% | -0.6519% |
| `CC(C)CN1CC2(CCN(C(=O)c3cn4cccnc4n3)CC2)CC1=O` | -23.89% | 4.177% |
| `CCS(=O)(=O)N1CCCC2(COCCN(c3cnccn3)C2)C1` (configuration not stated) | - | 3.462% |
| `O=C(Nc1ccc(CCN2CCC(O)CC2)cc1)C1CCCOC1` (configuration not stated) | 13.92% | 5.853% |
| `CCCc1noc(CNc2ccc(C(=O)N3CCCC3)cc2C)n1` | -6.691% | 2.452% |
| `CN(C)Cc1cc(C2CCCCN2S(=O)(=O)c2cccc(Cl)c2)nn1C` (configuration not stated) | - | 2.797% |
| `OCC(O)CSCc1ccc(F)cc1Cl` (configuration not stated) | 20.44% | 3.382% |
| `Cc1csc(N2CCC(NCC3(O)CCc4ccccc43)CC2)n1` (configuration not stated) | 14.02% | -0.2012% |
| `CCN(CC)CCCN1CCC(NC(=O)OC(C)(C)C)CC1` | 39.73% | 3.24% |
| `O=C1CC(N(C(=O)c2ccc(Cl)c(Cl)c2)C2CC2)C(=O)N1` (configuration not stated) | 5.646% | 1.575% |
| `[H][C@@]12CN(Cc3ccc(C#N)cc3)C[C@]1([H])OCC(=O)N2` | -24.73% | - |
| `Cc1cnn(CC2CCCCN2C(=O)Cc2c(C)noc2Cl)c1` (configuration not stated) | 11.89% | -0.1318% |
| `O=C1[C@H]2CN(Cc3cccs3)C[C@H]2CN1CCN1CCCC1` | - | -0.6435% |
| `Cn1cc(CNCCC(=O)NCc2ccccc2)c(-c2cccnc2)n1` | 13.92% | 2.39% |
| `Cc1nc(C(=O)N(C)CC(=O)N(C)C)nn1-c1ccccc1C(C)C` | 13.29% | -3.815% |
| `O=C(O)C(F)(F)F.O=C(c1ccc[nH]1)N1CCC2(CCCN2Cc2cccnc2)CC1` | 12.17% | - |
| `O=C(NCc1cc2n(n1)CCCNC2)C1(c2ccc(Cl)cc2)CCC1` | 17.28% | -28.12% |
| `Cc1nc2c(C)cccc2cc1C(=O)N1CCC2(CCNCC2)CC1` | 24.39% | 8.481% |
| `CC(=O)N1CCCC1c1cccc(Cc2ccc(F)cc2)n1` (configuration not stated) | 16.6% | 9.067% |
| `Cc1cnn(C2CCCN(C(=O)c3cc(C)sc3C)C2)c1` (configuration not stated) | 14.75% | 0.4049% |
| `CCc1noc(CN(C)C(=O)COc2cccc(Cl)c2C)n1` | -3.278% | 4.752% |
| `Cc1nc2c(c(C)c1CC(=O)NC(C)c1ccccc1)c(=O)[nH]n2C` (configuration not stated) | -21.84% | 2.558% |
| `Cc1n[nH]cc1CNCC(O)c1ccc(F)c(F)c1.Cl` (configuration not stated) | -3.232% | - |
| `Cc1nn2c(N3CCS(=O)(=O)CC3)cc(-c3ccccc3)nc2c1C` | 23.59% | -2.303% |
| `O=C(O)C(F)(F)F.O=C(O)C(F)(F)F.O=C(O)C(F)(F)F.c1ccc(Cn2cc3c(n2)C(CNCC2CCOCC2)OCC3)nc1` (configuration not stated) | 17% | - |
| `O=C(C1CC1)N1CCC(c2nc(O)c3c(n2)CN(C2CCCC2)CC3)C1` (configuration not stated) | 12.47% | -0.9804% |
| `CC(C)N1CCCn2nc(C(=O)NCCc3c[nH]cn3)cc2C1` | -7.18% | -1.72% |
| `COc1cccc(-c2noc3c2CN(c2nc(C)ncc2C)CC3)c1` | 19.57% | 4.839% |
| `Cc1noc(C)c1CCC(=O)NCC1(O)CCN(c2ccccn2)C1` (configuration not stated) | 2.217% | -3.804% |
| `COc1ccc(-n2cnnc2SCCC#N)cn1` | 18.09% | 5.357% |
| `O=S(=O)(Nc1ccc(N2CCOCC2)cc1)c1cccc(F)c1` | 16.76% | 2.581% |
| `Cc1nc(N2CCCCC2)ncc1-c1cc(O)nc(N2CCCCC2)n1` | 25.68% | -28.87% |
| `CCCN(Cc1cnn(C)c1)S(=O)(=O)c1cccc(F)c1C#N` | 15.82% | -0.1653% |
| `COc1ccc(CN2C[C@H]3CN(C(=O)c4ccno4)CCN3C2=O)cc1` | - | 11.96% |
| `O=C(O)C(F)(F)F.O=C(O)C(F)(F)F.[H][C@@]12CN(CC3CC3)C[C@]1([H])OCCN2c1ccc(C)nn1` | 26.84% | - |
| `CNC(=O)CN1C(=O)CCC12CCCN(Cc1ccccn1)C2` (configuration not stated) | 12.42% | -0.7634% |
| `Cc1ccsc1-c1nc(CN(C)Cc2cc[nH]n2)c(C)o1` | 8.242% | 6.17% |
| `CNc1cc(-c2cc(OC)c(OC)c(OC)c2)ncn1` | -13.66% and 1.053% | -2.289% |
| `COc1nn(C)c2c1CCCN(C(=O)c1ccc3ccccc3n1)C2.O=C(O)C(F)(F)F` | -11.56% | - |
| `COc1ccc(CC(=O)N2CCC(Nc3ccc(C)nn3)CC2)cc1` | 24.42% | -0.3727% |
| `COc1cccc2c1OCC(CNC(=O)CSc1nc(N)n[nH]1)C2` (configuration not stated) | 21.55% | -2.203% |
| `[H][C@@]12CNC(=O)N1CCN(Cc1nccs1)C2` | 16.67% | - |
| `FC(F)(F)Oc1ccc(CN2CCCC(n3cncn3)C2)cc1` (configuration not stated) | 38.42% | 3.163% |
| `CC(C)Nc1ncnc2c1CCN(C(=O)CCc1ccccc1)CC2` | 8.63% | -1.42% |
| `[H][C@]12CC[C@]([H])(CN(Cc3ccc(OC)cc3)C1)N(S(C)(=O)=O)C2` | 8.102% | - |
| `Cc1nc(C)n(CC(=O)N2CCCC(c3nc(C)n4c(C)csc34)C2)n1` (configuration not stated) | 26.76% | 5.097% |
| `Cc1cc(C2CCCN(CCS(=O)(=O)c3ccccc3)C2)n[nH]1` (configuration not stated) | 35.7% | -19.96% |
| `CC(C(=O)NCC1(c2cccc(Br)c2)CCC1)S(C)(=O)=O` (configuration not stated) | 1.476% | -2.161% |
| `Cc1ccccc1C1(C(=O)NCCN2CCCC(C)C2)CCOCC1` (configuration not stated) | -36.33% | 2.368% |
| `Cc1cnn(CC2CCCCN2Cc2noc(C3CC3)n2)c1` (configuration not stated) | 6.899% | 1.596% |
| `COc1cccc(C(CO)NC(=O)Cc2ccc(F)c(Br)c2)c1` (configuration not stated) | 28.75% | 0.2141% |
| `O=S(=O)(C1CC1)N1CC[C@]2(C[C@@H](Oc3ccccn3)CO2)C1` | - | 3.169% |
| `O=C(NCCn1cnnc1C1CC1)c1c(O)cc(F)cc1F` | -8.347% | -1.205% |

Some entries from above, unchanged:

| SMILES | Leishmania in macrophages | CoaBC |
|---|---|---|
| `COc1cccc2c1OCC(CNC(=O)CSc1nc(N)n[nH]1)C2` (configuration not stated) | 21.55% | -2.203% |
| `COc1cccc(S(=O)(=O)N2C[C@@H](O)[C@H](N(C)C)C2)c1` | -27.74% | 13.05% |
| `OCC(O)CSCc1ccc(F)cc1Cl` (configuration not stated) | 20.44% | 3.382% |
| `O=C1CC(N(C(=O)c2ccc(Cl)c(Cl)c2)C2CC2)C(=O)N1` (configuration not stated) | 5.646% | 1.575% |
| `Cc1cnn(CC2CCCCN2C(=O)Cc2c(C)noc2Cl)c1` (configuration not stated) | 11.89% | -0.1318% |

From ChEMBL document CHEMBL3988442, “University of Dundee, Small-Polar-MMV Screening Library” (2021).